The values that follow come from doi:10.1101/2022.04.04.487088.

These are yes or no findings as the source states them, for the method shown. In cells and extracts the contact can be indirect. Some results given as binding are weak or reduced against the parent protein; the word gives no strength. Where a sequence is shown, tags or fusion partners need not be part of it.

Experiment [1] deals with T1, His-tagged DacA(ΔC) (E. coli) (UniProt P0AEB2).
T1 sequence: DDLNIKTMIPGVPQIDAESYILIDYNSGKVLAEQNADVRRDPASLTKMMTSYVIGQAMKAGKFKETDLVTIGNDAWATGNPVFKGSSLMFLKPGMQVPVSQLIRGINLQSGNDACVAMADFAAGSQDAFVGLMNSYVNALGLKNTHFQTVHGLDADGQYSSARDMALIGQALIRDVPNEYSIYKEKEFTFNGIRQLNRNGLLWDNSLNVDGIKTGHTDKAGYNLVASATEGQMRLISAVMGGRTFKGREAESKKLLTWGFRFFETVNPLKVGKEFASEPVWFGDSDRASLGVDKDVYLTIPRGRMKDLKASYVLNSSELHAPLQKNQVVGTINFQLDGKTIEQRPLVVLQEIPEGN
In words: pull-down.

In experiment [2] the target is T2, His-tagged DacA (E. coli) (UniProt P0AEB2).
T2 sequence: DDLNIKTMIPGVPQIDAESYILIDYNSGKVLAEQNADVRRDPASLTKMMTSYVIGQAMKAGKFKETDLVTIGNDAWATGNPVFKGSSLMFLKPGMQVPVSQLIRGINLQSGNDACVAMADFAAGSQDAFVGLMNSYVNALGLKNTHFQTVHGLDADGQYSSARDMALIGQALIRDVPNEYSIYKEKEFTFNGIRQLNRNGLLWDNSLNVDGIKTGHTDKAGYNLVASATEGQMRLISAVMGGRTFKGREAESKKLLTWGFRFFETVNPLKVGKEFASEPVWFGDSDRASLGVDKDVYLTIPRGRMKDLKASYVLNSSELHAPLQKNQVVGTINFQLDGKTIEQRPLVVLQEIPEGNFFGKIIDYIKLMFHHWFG
The experiment is described as follows: pull-down.

B1: PBP1a-Flag (chromosomal PBP1a with three Flag-tags at the C-terminus) (enzyme, UniProt P02918 1-850)
chain: MKFVKYFLILAVCCILLGAGSIYGLYRYIEPQLPDVATLKDVRLQIPMQIYSADGELIAQYGEKRRIPVTLDQIPPEMVKAFIATEDSRFYEHHGVDPVGIFRAASVALFSGHASQGASTITQQLARNFFLSPERTLMRKIKEVFLAIRIEQLLTKDEILELYLNKIYLGYRAYGVGAAAQVYFGKTVDQLTLNEMAVIAGLPKAPSTFNPLYSMDRAVARRNVVLSRMLDEGYITQQQFDQTRTEAINANYHAPEIAFSAPYLSEMVRQEMYNRYGESAYEDGYRIYTTITRKVQQAAQQAVRNNVLDYDMRHGYRGPANVLWKVGESAWDNNKITDTLKALPTYGPLLPAAVTSANPQQATAMLADGSTVALSMEGVRWARPYRSDTQQGPTPRKVTDVLQTGQQIWVRQVGDAWWLAQVPEVNSALVSINPQNGAVMALVGGFDFNQSKFNRATQALRQVGSNIKPFLYTAAMDKGLTLASMLNDVPISRWDASAGSDWQPKNSPPQYAGPIRLRQGLGQSKNVVMVRAMRAMGVDYAAEYLQRFGFPAQNIVHTESLALGSASFTPMQVARGYAVMANGGFLVDPWFISKIENDQGGVIFEAKPKVACPECDIPVIYGDTQKSNVLENNDVEDVAISREQQNVSVPMPQLEQANQALVAKTGAQEYAPHVINTPLAFLIKSALNTNIFGEPGWQGTGWRAGRDLQRRDIGGKTGTTNSSKDAWFSGYGPGVVTSVWIGFDDHRRNLGHTTASGAIKDQISGYEGGAKSAQPAWDAYMKAVLEGVPEQPLTPPPGIVTVNIDRSTGQLANGGNSREEYFIEGTQPTQQAVHEVGTTIIDNGEAQELF
For the molecule B1, the figures for the binding result in experiment [1] and in experiment [2] were “no binding” and “binds”, respectively.

B2: overexpressed full-length PBP1a (enzyme, UniProt P02918 1-850)
chain: B1 chain
B2: the results for the binding entry in experiment [1] and in experiment [2] were “no binding” and “binds”, respectively.

B3: PBP1b-Flag (chromosomal PBP1b with three Flag-tags at the C-terminus) (enzyme, UniProt P02919 1-844)
chain: MAGNDREPIGRKGKPTRPVKQKVSRRRYEDDDDYDDYDDYEDEEPMPRKGKGKGKGRKPRGKRGWLWLLLKLAIVFAVLIAIYGVYLDQKIRSRIDGKVWQLPAAVYGRMVNLEPDMTISKNEMVKLLEATQYRQVSKMTRPGEFTVQANSIEMIRRPFDFPDSKEGQVRARLTFDGDHLATIVNMENNRQFGFFRLDPRLITMISSPNGEQRLFVPRSGFPDLLVDTLLATEDRHFYEHDGISLYSIGRAVLANLTAGRTVQGASTLTQQLVKNLFLSSERSYWRKANEAYMALIMDARYSKDRILELYMNEVYLGQSGDNEIRGFPLASLYYFGRPVEELSLDQQALLVGMVKGASIYNPWRNPKLALERRNLVLRLLQQQQIIDQELYDMLSARPLGVQPRGGVISPQPAFMQLVRQELQAKLGDKVKDLSGVKIFTTFDSVAQDAAEKAAVEGIPALKKQRKLSDLETAIVVVDRFSGEVRAMVGGSEPQFAGYNRAMQARRSIGSLAKPATYLTALSQPKIYRLNTWIADAPIALRQPNGQVWSPQNDDRRYSESGRVMLVDALTRSMNVPTVNLGMALGLPAVTETWIKLGVPKDQLHPVPAMLLGALNLTPIEVAQAFQTIASGGNRAPLSALRSVIAEDGKVLYQSFPQAERAVPAQAAYLTLWTMQQVVQRGTGRQLGAKYPNLHLAGKTGTTNNNVDTWFAGIDGSTVTITWVGRDNNQPTKLYGASGAMSIYQRYLANQTPTPLNLVPPEDIADMGVDYDGNFVCSGGMRILPVWTSDPQSLCQQSEMQQQPSGNPFDQSSQPQQQPQQQPAQQEQKDSDGVAGWIKDMFGSN
Regarding B3, the values for the binding result in experiment [1] and in experiment [2] were “no binding” and “binds”, respectively.

B4: overexpressed full-length PBP1b (enzyme, UniProt P02919 1-844)
chain: B3 chain
On to B4, for which the figures for the binding entry in experiment [1] and in experiment [2] were “no binding” and “binds”, respectively.

B5: PBP2-Flag (chromosomal PBP2 with three Flag-tags at the C-terminus) (enzyme, UniProt P0AD65 1-633)
chain: MKLQNSFRDYTAESALFVRRALVAFLGILLLTGVLIANLYNLQIVRFTDYQTRSNENRIKLVPIAPSRGIIYDRNGIPLALNRTIYQIEMMPEKVDNVQQTLDALRSVVDLTDDDIAAFRKERARSHRFTSIPVKTNLTEVQVARFAVNQYRFPGVEVKGYKRRYYPYGSALTHVIGYVSKINDKDVERLNNDGKLANYAATHDIGKLGIERYYEDVLHGQTGYEEVEVNNRGRVIRQLKEVPPQAGHDIYLTLDLKLQQYIETLLAGSRAAVVVTDPRTGGVLALVSTPSYDPNLFVDGISSKDYSALLNDPNTPLVNRATQGVYPPASTVKPYVAVSALSAGVITRNTTLFDPGWWQLPGSEKRYRDWKKWGHGRLNVTRSLEESADTFFYQVAYDMGIDRLSEWMGKFGYGHYTGIDLAEERSGNMPTREWKQKRFKKPWYQGDTIPVGIGQGYWTATPIQMSKALMILINDGIVKVPHLLMSTAEDGKQVPWVQPHEPPVGDIHSGYWELAKDGMYGVANRPNGTAHKYFASAPYKIAAKSGTAQVFGLKANETYNAHKIAERLRDHKLMTAFAPYNNPQVAVAMILENGGAGPAVGTLMRQILDHIMLGDNNTDLPAENPAVAAAEDH
B5: the binding result in experiment [1] is given as “no binding”; in experiment [2] it was “binds”.

B6: PBP3-Flag (chromosomal PBP3 with three Flag-tags at the C-terminus) (enzyme, UniProt P0AD68 1-577)
chain: MKAAAKTQKPKRQEEHANFISWRFALLCGCILLALAFLLGRVAWLQVISPDMLVKEGDMRSLRVQQVSTSRGMITDRSGRPLAVSVPVKAIWADPKEVHDAGGISVGDRWKALANALNIPLDQLSARINANPKGRFIYLARQVNPDMADYIKKLKLPGIHLREESRRYYPSGEVTAHLIGFTNVDSQGIEGVEKSFDKWLTGQPGERIVRKDRYGRVIEDISSTDSQAAHNLALSIDERLQALVYRELNNAVAFNKAESGSAVLVDVNTGEVLAMANSPSYNPNNLSGTPKEAMRNRTITDVFEPGSTVKPMVVMTALQRGVVRENSVLNTIPYRINGHEIKDVARYSELTLTGVLQKSSNVGVSKLALAMPSSALVDTYSRFGLGKATNLGLVGERSGLYPQKQRWSDIERATFSFGYGLMVTPLQLARVYATIGSYGIYRPLSITKVDPPVPGERVFPESIVRTVVHMMESVALPGGGGVKAAIKGYRIAIKTGTAKKVGPDGRYINKYIAYTAGVAPASQPRFALVVVINDPQAGKYYGGAVSAPVFGAIMGGVLRTMNIEPDALTTGDKNEFV
For B6, the binding entry was “no binding” in experiment [1] and “binds” in experiment [2].
